Patent US20150140018A1 (MEDICAL AND BIOLOGICAL LABORATORIES, published 2015)
Results are given in words; binding and its absence hold for the method and conditions named. Some entries that bind do so weakly or less than the wild type.

Sequences of proteins named here, by UniProt entry; tags and fusion partners are left off. Residues count along the entry.
UniProt P78310, residues 20-365: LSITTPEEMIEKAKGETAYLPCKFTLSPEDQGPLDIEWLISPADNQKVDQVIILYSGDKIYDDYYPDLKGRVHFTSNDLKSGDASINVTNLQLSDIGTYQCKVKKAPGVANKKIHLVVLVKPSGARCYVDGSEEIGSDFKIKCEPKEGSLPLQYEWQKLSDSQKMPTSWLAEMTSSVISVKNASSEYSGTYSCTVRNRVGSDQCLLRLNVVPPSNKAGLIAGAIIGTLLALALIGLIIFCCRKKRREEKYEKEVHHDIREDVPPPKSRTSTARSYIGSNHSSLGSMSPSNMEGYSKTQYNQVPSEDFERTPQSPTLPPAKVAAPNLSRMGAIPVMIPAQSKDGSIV

Molecular target: CXADR protein expressed on Ba/F3 cells (CXADR-expressing cells) (human) (UniProt P78310)
Experiment: flow cytometry, hybridoma antibody on Ba/F3 cells expressing CXADR

| Binder | binding |
| --- | --- |
| anti-CXADR antibody 7F8A (antibody, V domains shown, also called 7F8A clone) VH: DVQLQESGPGLVKPSQTVSLTCTVTGYSITNGNHWWNWIRQVSGSKLEWIGYINSSGSTDSNPSLKSRISITRDTSKNQLFLQLNSVTIEDIATYYCARDDYYFDYWGQGTTLTVSS VL: DIQMTQSPASLSASVGETVTITCRASENIDSYLAWYQQKQGKSPQLLVYAATLLADGVPSRFSGSGSGTQYSLKINSLQSEDVARYYCQHYYSTPLTFGAGTKLELKR | binds |
| anti-CXADR antibody 6G10A (antibody, V domains shown) VH: QVQLQQPGAELVKPGASVKLSCKASGYTFTSYWINWVKQRPGQGLEWIGNIYPGSSSTKYNEKFKSKATLTVDTSSSTAHMQLSSLTSDDSAVYYCAKGDGDYFADWGQGTLVTVSA VL: DIQMTQSPASLSASVGETVTITCRASENIDSYLAWYQQKQGKSPQLLVYAATLLADGVPSRFSGSGSGTQYSLKINSLQSEDVARYYCQHYYSTPWTFGGGTKLEIKR | binds |
